According to paper PMC10863175:
These are yes or no findings as the source states them, for the method shown. Binding seen in cells or lysates may run through a third protein. Some entries that bind do so weakly or less than the wild type.

Amino acid sequences for entries named in this document (tags omitted). Residues count along the entry.
UniProt Q03135: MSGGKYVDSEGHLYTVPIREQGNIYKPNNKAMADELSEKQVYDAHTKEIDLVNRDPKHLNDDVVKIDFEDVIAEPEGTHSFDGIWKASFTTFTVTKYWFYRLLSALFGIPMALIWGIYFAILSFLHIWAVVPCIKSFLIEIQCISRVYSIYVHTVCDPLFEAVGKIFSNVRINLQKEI
UniProt P19793: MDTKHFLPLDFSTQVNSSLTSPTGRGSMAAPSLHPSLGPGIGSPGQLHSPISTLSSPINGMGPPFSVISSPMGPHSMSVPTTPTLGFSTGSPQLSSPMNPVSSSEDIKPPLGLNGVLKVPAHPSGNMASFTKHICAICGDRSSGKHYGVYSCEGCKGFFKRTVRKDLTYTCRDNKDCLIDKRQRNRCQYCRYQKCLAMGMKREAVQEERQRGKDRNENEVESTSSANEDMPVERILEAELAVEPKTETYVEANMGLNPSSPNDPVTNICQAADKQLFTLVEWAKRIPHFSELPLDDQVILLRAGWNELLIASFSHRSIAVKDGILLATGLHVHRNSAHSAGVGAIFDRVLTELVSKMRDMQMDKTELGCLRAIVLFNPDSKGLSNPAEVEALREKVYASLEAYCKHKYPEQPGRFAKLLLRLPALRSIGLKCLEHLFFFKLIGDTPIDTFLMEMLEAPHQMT
UniProt P24593, residues 21-272: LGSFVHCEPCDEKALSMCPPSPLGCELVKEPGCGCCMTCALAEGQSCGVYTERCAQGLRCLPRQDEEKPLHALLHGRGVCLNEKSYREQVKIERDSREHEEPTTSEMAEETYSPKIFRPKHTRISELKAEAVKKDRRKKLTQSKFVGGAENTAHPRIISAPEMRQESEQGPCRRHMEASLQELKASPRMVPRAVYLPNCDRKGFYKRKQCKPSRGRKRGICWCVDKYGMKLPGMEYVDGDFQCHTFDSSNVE

Tests used:
[1] = target: CAVEOLIN-1 (human (endogenous in MSCs)) (UniProt Q03135); experiment: proximity ligation; Duolink PLA on MSCs grown on cover slides and incubated with His-tag-IGFBP5; primary antibodies anti-His-Tag with anti-CAV1 (5 min after incubation) or anti-RARα (10 min after incubation); fluorescence microscopy; only the binder purified
[2] = target: RXRα (retinoid X receptor alpha), endogenous (human (endogenous in MSCs)) (UniProt P19793); experiment: co-IP; MSCs incubated with His-tag-IGFBP5; lysed in 0.1% Triton buffer; 20 μg lysate with 2 μg anti-IGFBP5 (text: anti-His-tag), anti-RXRα or anti-RARα antibody for 12 h at 4°C; protein A/G magnetic beads; western blot
[3] = target: His-tag-IGFBP5 recombinant protein (human) (UniProt P24593); experiment: as above

Row | binding [1] | binding [2] | binding [3] | Substance
1 | binds | binds | – | His-tag-IGFBP5 recombinant protein (from UniProt P24593 21-272)
2 | – | – | binds | RXRα (retinoid X receptor alpha), endogenous (from UniProt P19793 1-462)
